Source: the supplement of paper PMC10849652
The other results are listed elsewhere or left out.

Amino acid sequences for entries named in this document (tags omitted). A change or cut given only in a name is not applied to a line headed by its entry.
UniProt Q9BUP0: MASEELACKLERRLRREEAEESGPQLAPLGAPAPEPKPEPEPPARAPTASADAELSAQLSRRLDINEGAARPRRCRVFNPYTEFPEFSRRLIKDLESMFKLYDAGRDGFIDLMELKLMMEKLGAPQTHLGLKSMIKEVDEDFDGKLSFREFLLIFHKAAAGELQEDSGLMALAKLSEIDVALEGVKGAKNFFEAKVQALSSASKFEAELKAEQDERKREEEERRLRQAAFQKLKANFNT
UniProt Q99956: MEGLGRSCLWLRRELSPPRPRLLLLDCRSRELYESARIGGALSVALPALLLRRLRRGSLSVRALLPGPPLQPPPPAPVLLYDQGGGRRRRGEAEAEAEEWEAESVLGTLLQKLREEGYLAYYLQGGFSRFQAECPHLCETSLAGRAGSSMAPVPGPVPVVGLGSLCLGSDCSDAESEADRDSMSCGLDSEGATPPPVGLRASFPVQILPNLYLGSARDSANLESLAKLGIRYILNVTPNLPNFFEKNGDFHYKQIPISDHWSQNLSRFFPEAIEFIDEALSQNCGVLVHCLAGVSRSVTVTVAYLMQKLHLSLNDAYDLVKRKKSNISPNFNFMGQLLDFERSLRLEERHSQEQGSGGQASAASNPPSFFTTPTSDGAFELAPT
UniProt Q9Y295: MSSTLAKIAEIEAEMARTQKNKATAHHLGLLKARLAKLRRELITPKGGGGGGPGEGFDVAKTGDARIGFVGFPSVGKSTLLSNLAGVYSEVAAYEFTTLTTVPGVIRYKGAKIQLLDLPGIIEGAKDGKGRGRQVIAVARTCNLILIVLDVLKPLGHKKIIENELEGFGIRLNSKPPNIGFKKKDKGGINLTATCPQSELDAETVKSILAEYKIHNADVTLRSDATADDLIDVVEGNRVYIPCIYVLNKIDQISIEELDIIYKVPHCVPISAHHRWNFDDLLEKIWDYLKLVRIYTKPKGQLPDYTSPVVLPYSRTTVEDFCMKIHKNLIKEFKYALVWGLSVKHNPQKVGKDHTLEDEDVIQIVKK
UniProt Q7RTS9: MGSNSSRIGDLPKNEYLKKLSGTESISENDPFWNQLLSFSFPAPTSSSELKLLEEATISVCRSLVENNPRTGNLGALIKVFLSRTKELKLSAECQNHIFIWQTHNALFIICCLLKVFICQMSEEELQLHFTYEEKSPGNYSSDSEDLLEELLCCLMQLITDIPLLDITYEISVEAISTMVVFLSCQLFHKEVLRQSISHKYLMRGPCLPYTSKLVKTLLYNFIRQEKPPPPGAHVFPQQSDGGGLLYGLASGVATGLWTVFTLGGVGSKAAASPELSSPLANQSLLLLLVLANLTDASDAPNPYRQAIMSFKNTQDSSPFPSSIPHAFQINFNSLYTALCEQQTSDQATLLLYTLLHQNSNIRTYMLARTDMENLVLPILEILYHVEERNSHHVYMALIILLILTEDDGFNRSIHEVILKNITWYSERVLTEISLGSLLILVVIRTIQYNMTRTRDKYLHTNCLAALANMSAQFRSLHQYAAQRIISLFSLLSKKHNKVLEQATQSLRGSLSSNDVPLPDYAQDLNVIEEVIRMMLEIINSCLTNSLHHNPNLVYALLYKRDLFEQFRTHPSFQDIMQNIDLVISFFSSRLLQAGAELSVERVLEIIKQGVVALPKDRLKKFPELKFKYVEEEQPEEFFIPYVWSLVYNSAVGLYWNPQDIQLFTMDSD
UniProt Q01658: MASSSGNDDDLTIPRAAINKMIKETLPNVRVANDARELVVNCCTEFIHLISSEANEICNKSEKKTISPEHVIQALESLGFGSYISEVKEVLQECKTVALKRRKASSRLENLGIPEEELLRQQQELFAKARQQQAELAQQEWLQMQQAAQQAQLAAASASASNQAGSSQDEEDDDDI
UniProt Q9BTV6: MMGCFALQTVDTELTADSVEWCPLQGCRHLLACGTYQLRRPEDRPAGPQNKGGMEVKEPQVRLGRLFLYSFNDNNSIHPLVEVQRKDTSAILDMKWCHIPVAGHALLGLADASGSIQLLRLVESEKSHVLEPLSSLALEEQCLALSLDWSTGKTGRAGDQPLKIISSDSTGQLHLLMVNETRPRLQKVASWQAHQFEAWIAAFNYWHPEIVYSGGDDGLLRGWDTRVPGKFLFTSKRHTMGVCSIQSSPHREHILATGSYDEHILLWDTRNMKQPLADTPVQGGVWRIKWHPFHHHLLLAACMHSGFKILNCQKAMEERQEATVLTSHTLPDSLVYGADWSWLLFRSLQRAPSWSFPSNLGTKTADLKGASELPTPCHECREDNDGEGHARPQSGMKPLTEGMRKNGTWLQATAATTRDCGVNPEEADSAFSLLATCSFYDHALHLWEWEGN
UniProt Q6P1R4: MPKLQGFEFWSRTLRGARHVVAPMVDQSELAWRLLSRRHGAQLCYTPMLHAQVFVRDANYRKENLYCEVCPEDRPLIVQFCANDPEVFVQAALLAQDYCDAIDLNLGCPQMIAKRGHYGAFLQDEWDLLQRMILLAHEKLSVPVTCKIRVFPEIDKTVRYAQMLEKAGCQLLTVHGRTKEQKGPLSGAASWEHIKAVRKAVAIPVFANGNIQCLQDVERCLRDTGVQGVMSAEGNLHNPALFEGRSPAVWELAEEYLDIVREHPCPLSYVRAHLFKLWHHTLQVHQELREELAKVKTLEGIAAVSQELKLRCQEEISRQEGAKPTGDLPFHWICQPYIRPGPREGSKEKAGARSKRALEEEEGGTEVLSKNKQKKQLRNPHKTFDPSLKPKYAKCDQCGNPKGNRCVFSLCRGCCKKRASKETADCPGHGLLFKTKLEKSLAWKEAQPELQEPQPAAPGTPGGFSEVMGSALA
UniProt Q9BVJ7: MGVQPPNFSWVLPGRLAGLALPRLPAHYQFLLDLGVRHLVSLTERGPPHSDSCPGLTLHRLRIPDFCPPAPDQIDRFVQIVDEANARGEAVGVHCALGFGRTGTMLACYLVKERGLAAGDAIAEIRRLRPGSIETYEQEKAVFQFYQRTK
UniProt P33316: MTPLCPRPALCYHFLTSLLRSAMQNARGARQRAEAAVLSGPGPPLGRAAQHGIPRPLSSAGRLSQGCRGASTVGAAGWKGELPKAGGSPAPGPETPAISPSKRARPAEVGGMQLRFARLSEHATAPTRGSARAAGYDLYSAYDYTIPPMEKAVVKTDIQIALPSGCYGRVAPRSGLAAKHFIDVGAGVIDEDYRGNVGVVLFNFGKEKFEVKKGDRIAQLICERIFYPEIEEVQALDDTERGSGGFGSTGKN
UniProt P98172: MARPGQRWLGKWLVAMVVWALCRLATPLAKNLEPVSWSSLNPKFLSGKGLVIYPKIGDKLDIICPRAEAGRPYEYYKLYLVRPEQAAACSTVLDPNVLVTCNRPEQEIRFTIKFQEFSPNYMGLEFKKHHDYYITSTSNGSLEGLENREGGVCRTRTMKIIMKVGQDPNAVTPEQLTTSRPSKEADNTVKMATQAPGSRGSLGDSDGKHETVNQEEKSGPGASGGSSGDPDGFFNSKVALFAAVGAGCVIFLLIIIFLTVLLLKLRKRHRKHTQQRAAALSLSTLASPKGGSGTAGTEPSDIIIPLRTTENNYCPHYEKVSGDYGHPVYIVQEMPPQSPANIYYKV
UniProt Q96EV8: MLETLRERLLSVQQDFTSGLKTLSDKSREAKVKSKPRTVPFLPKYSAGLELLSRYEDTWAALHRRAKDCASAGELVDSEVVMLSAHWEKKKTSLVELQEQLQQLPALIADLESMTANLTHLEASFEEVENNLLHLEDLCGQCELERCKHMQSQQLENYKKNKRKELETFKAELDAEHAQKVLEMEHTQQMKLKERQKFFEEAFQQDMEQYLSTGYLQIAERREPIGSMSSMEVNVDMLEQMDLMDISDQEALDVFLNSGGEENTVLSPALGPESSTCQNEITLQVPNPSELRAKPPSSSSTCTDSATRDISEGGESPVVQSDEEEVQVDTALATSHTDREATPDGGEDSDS
UniProt Q9BZQ6: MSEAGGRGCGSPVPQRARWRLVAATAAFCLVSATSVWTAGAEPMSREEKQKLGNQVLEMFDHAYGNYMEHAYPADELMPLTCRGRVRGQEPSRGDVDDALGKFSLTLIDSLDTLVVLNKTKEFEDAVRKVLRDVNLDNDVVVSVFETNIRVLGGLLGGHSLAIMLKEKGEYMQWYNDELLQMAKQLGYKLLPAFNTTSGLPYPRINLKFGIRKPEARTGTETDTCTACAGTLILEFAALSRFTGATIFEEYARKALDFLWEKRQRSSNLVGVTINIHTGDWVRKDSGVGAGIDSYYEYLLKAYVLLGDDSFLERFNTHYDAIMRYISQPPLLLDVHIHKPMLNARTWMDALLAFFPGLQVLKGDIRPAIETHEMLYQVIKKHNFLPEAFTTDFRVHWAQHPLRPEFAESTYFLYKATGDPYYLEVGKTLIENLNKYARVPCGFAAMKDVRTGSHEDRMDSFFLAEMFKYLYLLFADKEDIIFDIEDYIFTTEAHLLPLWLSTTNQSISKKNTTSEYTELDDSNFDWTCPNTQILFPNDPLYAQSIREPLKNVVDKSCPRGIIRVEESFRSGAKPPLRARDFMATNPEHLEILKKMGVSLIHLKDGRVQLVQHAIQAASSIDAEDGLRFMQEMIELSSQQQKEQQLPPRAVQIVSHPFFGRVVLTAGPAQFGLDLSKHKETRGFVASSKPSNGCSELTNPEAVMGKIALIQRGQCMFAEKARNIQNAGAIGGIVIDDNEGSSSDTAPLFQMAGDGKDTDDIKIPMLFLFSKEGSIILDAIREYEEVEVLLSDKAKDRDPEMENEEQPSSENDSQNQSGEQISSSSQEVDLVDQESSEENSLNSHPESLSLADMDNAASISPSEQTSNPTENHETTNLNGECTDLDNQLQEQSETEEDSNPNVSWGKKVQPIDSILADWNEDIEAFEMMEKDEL
UniProt P63172, whole entry, looked up: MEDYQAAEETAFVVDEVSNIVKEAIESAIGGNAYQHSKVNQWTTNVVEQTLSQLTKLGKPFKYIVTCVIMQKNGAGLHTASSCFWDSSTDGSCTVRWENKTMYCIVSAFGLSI
UniProt Q14919: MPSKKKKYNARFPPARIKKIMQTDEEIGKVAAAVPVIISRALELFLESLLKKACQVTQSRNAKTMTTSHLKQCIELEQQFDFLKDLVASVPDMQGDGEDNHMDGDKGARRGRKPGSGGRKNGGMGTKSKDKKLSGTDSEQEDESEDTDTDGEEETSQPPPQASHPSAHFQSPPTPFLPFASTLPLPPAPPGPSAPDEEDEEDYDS
UniProt Q15125: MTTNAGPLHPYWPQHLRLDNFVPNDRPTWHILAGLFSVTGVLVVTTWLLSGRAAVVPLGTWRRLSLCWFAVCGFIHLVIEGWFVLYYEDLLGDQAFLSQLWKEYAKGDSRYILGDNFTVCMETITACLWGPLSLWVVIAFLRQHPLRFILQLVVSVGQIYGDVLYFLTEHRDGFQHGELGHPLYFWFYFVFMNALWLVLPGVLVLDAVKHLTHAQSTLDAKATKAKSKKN
UniProt Q9BY44: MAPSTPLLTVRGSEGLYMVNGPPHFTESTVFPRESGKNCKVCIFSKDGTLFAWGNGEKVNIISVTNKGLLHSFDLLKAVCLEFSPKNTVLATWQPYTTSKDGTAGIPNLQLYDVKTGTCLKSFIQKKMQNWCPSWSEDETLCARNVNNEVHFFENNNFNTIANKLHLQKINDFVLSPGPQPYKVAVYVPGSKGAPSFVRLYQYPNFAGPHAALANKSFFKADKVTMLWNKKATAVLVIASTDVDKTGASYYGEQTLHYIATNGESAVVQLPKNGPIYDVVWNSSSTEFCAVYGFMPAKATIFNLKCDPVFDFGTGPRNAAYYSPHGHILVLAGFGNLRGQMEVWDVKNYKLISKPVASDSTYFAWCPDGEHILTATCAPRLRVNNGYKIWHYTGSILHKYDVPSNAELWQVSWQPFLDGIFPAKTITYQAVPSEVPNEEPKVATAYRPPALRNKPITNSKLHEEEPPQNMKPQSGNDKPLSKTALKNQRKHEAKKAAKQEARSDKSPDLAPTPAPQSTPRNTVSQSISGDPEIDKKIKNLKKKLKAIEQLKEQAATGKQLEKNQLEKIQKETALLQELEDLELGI

Assays:
Test in all cases: log2 fold change, soluble protein after heating vs DMSO (PISA); higher = thermal stabilisation; K562 lysate, 10 uM; active = over 0.2 and 3.5 SD of the protein, either way, in both replicates (recomputed)
lapatinib = compound: CS(=O)(=O)CCNCc1ccc(-c2ccc3ncnc(Nc4ccc(OCc5cccc(F)c5)c(Cl)c4)c3c2)o1 [lapatinib]
Procedure, shortened: (§1)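 The values are log-two fold changes in thermal stability compared with solvent controls and come from duplicates. They were obtained by TMTpro 16plex LC-MS/MS, with channel sums equalised, on the supernatant after 21,000xg for 90 min. That supernatant came from crude K562 extract at 1 mg/mL protein treated with 10 μM compound for 30 min, heated for 3 min across 48°C-58°C, pooled and brought to 0.5% NP-40 at 4°C.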

pictilisib = compound: CS(=O)(=O)N1CCN(Cc2cc3nc(-c4cccc5[nH]ncc45)nc(N4CCOCC4)c3s2)CC1 [pictilisib]
Procedure, shortened: as §1

crizotinib = compound: C[C@@H](Oc1cc(-c2cnn(C3CCNCC3)c2)cnc1N)c1c(Cl)ccc(F)c1Cl [crizotinib]
Procedure, shortened: as §1

[1] = compound: C[C@H](C1=CC=C(C=C1)C(=O)NC2=C3C=CNC3=NC=C2)N
Procedure, shortened: as §1

duvelisib = compound: C[C@H](Nc1ncnc2nc[nH]c12)c1cc2cccc(Cl)c2c(=O)n1-c1ccccc1 [duvelisib]
Procedure, shortened: as §1

gandotinib = compound: Cc1cc(Nc2cc(CN3CCOCC3)c3nc(C)c(Cc4ccc(Cl)cc4F)n3n2)n[nH]1 [gandotinib]
Procedure, shortened: as §1

tozasertib = compound: Cc1cc(Nc2cc(N3CCN(C)CC3)nc(Sc3ccc(NC(=O)C4CC4)cc3)n2)n[nH]1 [tozasertib]
Procedure, shortened: as §1

doramapimod = compound: Cc1ccc(-n2nc(C(C)(C)C)cc2NC(=O)Nc2ccc(OCCN3CCOCC3)c3ccccc23)cc1 [doramapimod]
Procedure, shortened: as §1

bafetinib = compound: Cc1ccc(NC(=O)c2ccc(CN3CC[C@H](N(C)C)C3)c(C(F)(F)F)c2)cc1Nc1nccc(-c2cncnc2)n1 [bafetinib]
Procedure, shortened: as §1

[2] = compound: Cc1cccc(CC(=O)N2CCc3c2ccc(-c2cn(C)c4ncnc(N)c24)c3F)n1
Procedure, shortened: as §1

nilotinib = compound: Cc1cn(-c2cc(NC(=O)c3ccc(C)c(Nc4nccc(-c5cccnc5)n4)c3)cc(C(F)(F)F)c2)cn1 [nilotinib]
Procedure, shortened: as §1

[3] = compound: Cc1nc(Nc2n[nH]c3c2CN(C(=O)N[C@H](CN(C)C)c2ccccc2)C3(C)C)c2sccc2n1
Procedure, shortened: as §1

dasatinib = compound: Cc1nc(Nc2ncc(C(=O)Nc3c(C)cccc3Cl)s2)cc(N2CCN(CCO)CC2)n1 [dasatinib]
Procedure, shortened: as §1

[4] = compound: Cc1ncc(-c2ccnc(Nc3ccc(S(C)(=O)=O)cc3)n2)n1C(C)C
Procedure, shortened: as §1

[5] = compound: Cn1cc(-c2ccc3c(c2)CCN3C(=O)Cc2cccc(C(F)(F)F)c2)c2c(N)ncnc21
Procedure, shortened: as §1

quisinostat = compound: Cn1cc(CNCC2CCN(c3ncc(C(=O)NO)cn3)CC2)c2ccccc21 [quisinostat]
Procedure, shortened: as §1

tipifarnib = compound: Cn1cncc1[C@@](N)(c1ccc(Cl)cc1)c1ccc2c(c1)c(-c1cccc(Cl)c1)cc(=O)n2C [tipifarnib]
Procedure, shortened: as §1

[6] = compound: NC(=O)Nc1cc(-c2cccc(F)c2)sc1C(=O)N[C@H]1CCCNC1
Procedure, shortened: as §1

[7] = compound: NC(=O)c1cnc(N[C@@H]2CCCC[C@@H]2N)nc1Nc1cccc(-n2nccn2)c1
Procedure, shortened: as §1

[8] = compound: NC1(c2ccc(-c3nc4ccn5c(=O)[nH]nc5c4cc3-c3ccccc3)cc2)CCC1
Procedure, shortened: as §1

| Target | log2 fold change (lapatinib) | log2 fold change (pictilisib) | log2 fold change (crizotinib) | log2 fold change [1] | log2 fold change (duvelisib) | log2 fold change (gandotinib) | log2 fold change (tozasertib) | log2 fold change (doramapimod) | log2 fold change (bafetinib) | log2 fold change [2] | log2 fold change (nilotinib) | log2 fold change [3] | log2 fold change (dasatinib) | log2 fold change [4] | log2 fold change [5] | log2 fold change (quisinostat) | log2 fold change (tipifarnib) | log2 fold change [6] | log2 fold change [7] | log2 fold change [8] |
| --- | --- | --- | --- | --- | --- | --- | --- | --- | --- | --- | --- | --- | --- | --- | --- | --- | --- | --- | --- | --- |
| EFHD1 (UniProt Q9BUP0) | inactive: -0.017 | inactive: -0.018 | inactive: -0.004 | inactive: 0.052 | inactive: 0.007 | inactive: 0.034 | inactive: -0.036 | inactive: -0.019 | inactive: 0.034 | inactive: -0.043 | inactive: 0.067 | inactive: 0.062 | inactive: 0.061 | inactive: -0.13 | inactive: -0.005 | inactive: -0.025 | inactive: 0.021 | inactive: -0.059 | inactive: 0.012 | inactive: 0.014 |
| DUSP9 (UniProt Q99956) | inactive: -0.062 | inactive: 0.067 | inactive: -0.094 | inactive: 0.067 | inactive: -0.043 | inactive: -0.06 | inactive: 0.031 | inactive: 0.051 | inactive: -0.036 | inactive: 0.083 | inactive: -0.028 | inactive: 0.012 | inactive: -0.015 | inactive: 0.043 | inactive: 0.07 | inactive: 0.005 | inactive: 0.017 | inactive: 0.011 | inactive: 0.014 | inactive: -0.096 |
| DRG1 (UniProt Q9Y295) | inactive: -0.008 | inactive: -0.002 | inactive: 0.013 | inactive: 0.013 | inactive: 0.006 | inactive: -0.019 | inactive: -0.041 | inactive: -0.04 | inactive: 0.021 | inactive: -0.027 | inactive: 0.011 | inactive: -0.021 | inactive: -0.002 | inactive: -0.002 | inactive: 0.008 | inactive: 0.023 | inactive: 0.029 | inactive: -0.009 | inactive: -0.004 | inactive: -0.01 |
| DYM (UniProt Q7RTS9) | inactive: -0.054 | inactive: 0.01 | inactive: -0.135 | inactive: -0.03 | inactive: 0.031 | inactive: -0.133 | inactive: -0.064 | inactive: -0.028 | inactive: -0.043 | inactive: 0.052 | inactive: 0.016 | inactive: 0.049 | inactive: -0.059 | inactive: -0.088 | inactive: -0.017 | inactive: 0.057 | inactive: -0.07 | inactive: 0.069 | inactive: 0.043 | inactive: 0.06 |
| DR1 (UniProt Q01658) | inactive: -0.01 | inactive: -0.009 | inactive: 0.03 | inactive: -0.005 | inactive: 0.042 | inactive: 0.085 | inactive: -0.039 | inactive: 0.014 | inactive: 0.008 | inactive: -0.011 | inactive: -0.01 | inactive: 0.018 | inactive: 0.005 | inactive: -0.016 | inactive: -0.045 | inactive: -0.034 | inactive: 0.005 | inactive: 0.026 | inactive: -0.023 | inactive: 0.027 |
| DPH7 (UniProt Q9BTV6) | inactive: -0.005 | inactive: -0.006 | inactive: -0.009 | inactive: 0.007 | inactive: 0.003 | inactive: 0.084 | inactive: -0.007 | inactive: 0 | inactive: -0.042 | inactive: -0.008 | inactive: 0.003 | inactive: 0.015 | inactive: 0.008 | inactive: 0.024 | inactive: -0.02 | inactive: -0.099 | inactive: 0.013 | inactive: -0.027 | inactive: 0.023 | inactive: 0.017 |
| DUS1L (UniProt Q6P1R4) | inactive: -0.007 | inactive: -0.02 | inactive: -0.047 | inactive: -0.02 | inactive: -0.015 | inactive: -0.074 | inactive: -0.068 | inactive: -0.018 | inactive: -0.075 | inactive: 0.073 | inactive: -0.018 | inactive: 0.011 | inactive: -0.03 | inactive: 0.031 | inactive: -0.032 | inactive: -0.035 | inactive: 0.008 | inactive: 0.096 | inactive: 0.005 | inactive: 0.061 |
| DUSP23 (UniProt Q9BVJ7) | inactive: 0.058 | inactive: 0.036 | inactive: 0.005 | inactive: 0.022 | inactive: 0.019 | inactive: 0.016 | inactive: 0.023 | inactive: 0.039 | inactive: -0.014 | inactive: 0.031 | inactive: 0.015 | inactive: 0.073 | inactive: 0.049 | inactive: 0.144 | inactive: -0.002 | inactive: 0.015 | inactive: 0.034 | inactive: -0.029 | inactive: -0.033 | inactive: 0.045 |
| DUT (UniProt P33316) | inactive: -0.005 | inactive: 0.007 | inactive: 0.025 | inactive: -0.05 | inactive: 0.043 | inactive: 0.056 | inactive: -0.033 | inactive: -0.022 | inactive: 0.106 | inactive: 0.003 | inactive: 0.028 | inactive: -0.034 | inactive: 0.021 | inactive: -0.05 | inactive: -0.036 | inactive: 0.046 | inactive: -0.01 | inactive: -0.013 | inactive: -0.006 | inactive: -0.005 |
| EFNB1 (UniProt P98172) | inactive: 0.028 | inactive: -0.051 | inactive: -0.038 | inactive: 0.039 | inactive: 0.022 | inactive: -0.033 | inactive: 0.047 | inactive: 0.054 | inactive: -0.093 | inactive: 0.195 | inactive: -0.054 | inactive: -0.249 | inactive: 0.006 | inactive: -0.222 | inactive: 0.03 | inactive: 0.014 | inactive: 0.003 | inactive: 0.011 | inactive: 0.013 | inactive: -0.007 |
| DTNBP1 (UniProt Q96EV8) | inactive: -0.01 | inactive: 0 | inactive: -0.038 | inactive: 0.013 | inactive: -0.017 | inactive: 0.092 | inactive: 0.092 | inactive: 0.04 | inactive: -0.025 | inactive: -0.032 | inactive: 0.02 | inactive: -0.023 | inactive: 0.03 | inactive: -0.015 | inactive: 0.061 | inactive: -0.008 | inactive: 0.053 | inactive: 0.054 | inactive: -0.022 | inactive: 0.015 |
| EDEM3 (UniProt Q9BZQ6) | inactive: 0.001 | inactive: -0.026 | inactive: -0.03 | inactive: -0.028 | inactive: -0.025 | inactive: -0.013 | inactive: 0.01 | inactive: 0.022 | inactive: -0.038 | inactive: -0.019 | inactive: -0.002 | inactive: -0.018 | inactive: -0.024 | inactive: 0.036 | inactive: 0.023 | inactive: -0.016 | inactive: -0.005 | inactive: 0.044 | inactive: 0.007 | inactive: 0.014 |
| DYNLT1 (UniProt P63172) | inactive: 0.007 | inactive: -0.033 | inactive: -0.044 | inactive: -0.015 | inactive: -0.019 | inactive: -0.012 | inactive: -0.012 | inactive: -0.034 | inactive: -0.004 | inactive: 0.021 | inactive: 0.024 | inactive: 0.062 | inactive: 0.002 | inactive: 0.123 | inactive: -0.011 | inactive: 0.056 | inactive: 0.011 | inactive: 0.054 | inactive: -0.029 | inactive: -0.002 |
| DRAP1 isoform 2 (UniProt Q14919) | inactive: -0.004 | inactive: -0.002 | inactive: 0.011 | inactive: 0.047 | inactive: 0.013 | inactive: 0.016 | inactive: 0.009 | inactive: 0.028 | inactive: 0.015 | inactive: -0.006 | inactive: -0.02 | inactive: 0.01 | inactive: 0.039 | inactive: 0.014 | inactive: 0.012 | inactive: -0.008 | inactive: -0.01 | inactive: -0.021 | inactive: -0.015 | inactive: -0.023 |
| EBP (UniProt Q15125) | inactive: -0.044 | inactive: -0.004 | inactive: 0.07 | active: -0.269 | inactive: -0.093 | inactive: 0.1 | inactive: -0.016 | inactive: -0.127 | inactive: -0.011 | inactive: 0 | inactive: 0.081 | inactive: -0.016 | inactive: -0.05 | inactive: 0.018 | inactive: -0.137 | inactive: 0.038 | inactive: -0.03 | inactive: 0.042 | inactive: -0.006 | inactive: -0.05 |
| EIF2A (UniProt Q9BY44) | inactive: -0.008 | inactive: 0.002 | inactive: -0.01 | inactive: -0.059 | inactive: -0.008 | inactive: 0.009 | inactive: -0.025 | inactive: 0.016 | inactive: -0.004 | inactive: 0.002 | inactive: 0.005 | inactive: -0.009 | inactive: -0.009 | inactive: 0.003 | inactive: -0.006 | inactive: -0.002 | inactive: 0.049 | inactive: -0.023 | inactive: -0.019 | inactive: 0.001 |

Laid out differently: entries from further up.
Target	log2 fold change (lapatinib)	log2 fold change (pictilisib)	log2 fold change (crizotinib)	log2 fold change [1]	log2 fold change (duvelisib)	log2 fold change (gandotinib)	log2 fold change (tozasertib)	log2 fold change (doramapimod)	log2 fold change (bafetinib)	log2 fold change [2]	log2 fold change (nilotinib)	log2 fold change [3]	log2 fold change (dasatinib)	log2 fold change [4]	log2 fold change [5]	log2 fold change (quisinostat)	log2 fold change (tipifarnib)	log2 fold change [6]	log2 fold change [7]	log2 fold change [8]
DR1 (UniProt Q01658)	inactive: -0.01	inactive: -0.009	inactive: 0.03	inactive: -0.005	inactive: 0.042	inactive: 0.085	inactive: -0.039	inactive: 0.014	inactive: 0.008	inactive: -0.011	inactive: -0.01	inactive: 0.018	inactive: 0.005	inactive: -0.016	inactive: -0.045	inactive: -0.034	inactive: 0.005	inactive: 0.026	inactive: -0.023	inactive: 0.027
DPH7 (UniProt Q9BTV6)	inactive: -0.005	inactive: -0.006	inactive: -0.009	inactive: 0.007	inactive: 0.003	inactive: 0.084	inactive: -0.007	inactive: 0	inactive: -0.042	inactive: -0.008	inactive: 0.003	inactive: 0.015	inactive: 0.008	inactive: 0.024	inactive: -0.02	inactive: -0.099	inactive: 0.013	inactive: -0.027	inactive: 0.023	inactive: 0.017
